Earlier results, collected in US20120308562A1, “METHODS OF TREATING MESOTHELIOMA WITH A PI3K INHIBITOR COMPOUND” (priority 2011, published 2012).
At least one structure is not confirmed: it was looked up by name or label, or the drawing left a doubt.

System: xenograft cancer models; breast, ovarian, lung, and prostate
Settings: cited from earlier work

## Cc1c(CN2CCN(C(=O)[C@H](C)O)CC2)sc2c(N3CCOCC3)nc(-c3cnc(N)nc3)nc12 [GDC-0980, (S)-1-(4-((2-(2-aminopyrimidin-5-yl)-7-methyl-4-morpholinothieno[3,2-d]pyrimidin-6-yl)methyl)piperazin-1-yl)-2-hydroxypropan-1-one]
  activity in preclinical xenograft cancer models: broad activity
